Test results reported in patent US9090617B1, “Agonists of Src homology-2 containing protein tyrosine phosphatase-1 and treatment methods using the same” (National Taiwan University, priority 2011, dated 2015).
Some of these results come from one statement about several compounds together.

By UniProt entry, the sequences of proteins in these tests, tags left out. Where a name states a change or a piece, a line headed by the entry shows the natural chain unless it says otherwise.
UniProt P29350: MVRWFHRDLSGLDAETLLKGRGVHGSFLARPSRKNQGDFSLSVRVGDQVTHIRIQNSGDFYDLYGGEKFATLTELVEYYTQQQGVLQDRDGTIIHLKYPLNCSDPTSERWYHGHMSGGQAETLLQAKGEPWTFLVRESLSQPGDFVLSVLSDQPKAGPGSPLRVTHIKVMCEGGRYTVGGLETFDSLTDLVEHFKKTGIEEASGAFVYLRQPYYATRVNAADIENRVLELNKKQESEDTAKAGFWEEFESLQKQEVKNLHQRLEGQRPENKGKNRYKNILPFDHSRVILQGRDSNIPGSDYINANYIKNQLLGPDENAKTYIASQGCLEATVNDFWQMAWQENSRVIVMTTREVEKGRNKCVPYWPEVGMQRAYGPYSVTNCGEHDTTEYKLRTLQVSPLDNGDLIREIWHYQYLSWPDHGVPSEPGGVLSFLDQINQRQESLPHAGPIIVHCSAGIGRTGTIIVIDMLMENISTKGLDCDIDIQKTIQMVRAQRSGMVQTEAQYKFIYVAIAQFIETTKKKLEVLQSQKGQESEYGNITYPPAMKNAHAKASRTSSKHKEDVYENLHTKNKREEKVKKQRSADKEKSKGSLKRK

Target: SHP-1 (Homo sapiens, UniProt P29350)
Assay: SHP-1 activity in treated HCC cells (tyrosine phosphatase assay kit)
Format: cell-based
Design: endogenous in cells
Conditions: PLC5 cells, SHP-1 immunoprecipitated after treatment
Description: The RediPlate 96 EnzChek® Tyrosine Phosphatase Assay Kit (R-22067) was used for SHP-1 activity assay (Molecular Probes, Carlsbad, Calif.). The Raf-1 kinase cascade assay kit (Upstate-Millipore, Billerica, Mass.) was used to examine the Raf-1 kinase activity. The JAK2 kinase activity kit was purchased from Reaction Biology Corp. (Malvern, Pa.).

Structure (SMILES) | increase of SHP-1 activity in comparison with control cells
N#Cc1ccc(Oc2ccc(NC(=O)Nc3ccc(Cl)c(C(F)(F)F)c3)cc2)cc1 [Compound 1, 1-(4-Chloro-3-(trifluoromethyl)phenyl)-3-(4-(4-cyanophenoxyl)phenyl)urea] | up to 3 fold
CNC(=O)c1cc(Oc2ccc(NC(=O)Nc3ccc(Cl)c(C(F)(F)F)c3)cc2)ccn1 [Sorafenib, reference compound] | up to 3 fold
